In paper PMC5558016:
No constants are given. Whether binding was seen depends on the method and setting. Binding seen in cells or lysates may run through a third protein. Some entries that bind do so weakly or less than the wild type. Sequences can lack the tags named with a protein.

How the values were obtained:
[1] = molecular target: endogenous full-length RTTN (human (endogenous in HEK293T)) (UniProt Q86VV8); test: co-IP; HEK293T cells transfected with GFP-STIL; lysates immunoprecipitated with anti-RTTN antibodies, immunoblotted with anti-STIL and anti-RTTN
[2] = molecular target: T1, Flag-RTTN-N (A578P) mutant (human) (UniProt Q86VV8); test: co-IP; HEK293T cells co-transfected with GFP-STIL and Flag-tagged RTTN constructs; NP-40 lysis buffer (50 mM Tris-HCl pH 8.0, 150 mM NaCl, 1% NP-40); IP 2 h at 4 °C (anti-Flag in Fig. 7f), protein-G-sepharose, immunoblot
T1 sequence: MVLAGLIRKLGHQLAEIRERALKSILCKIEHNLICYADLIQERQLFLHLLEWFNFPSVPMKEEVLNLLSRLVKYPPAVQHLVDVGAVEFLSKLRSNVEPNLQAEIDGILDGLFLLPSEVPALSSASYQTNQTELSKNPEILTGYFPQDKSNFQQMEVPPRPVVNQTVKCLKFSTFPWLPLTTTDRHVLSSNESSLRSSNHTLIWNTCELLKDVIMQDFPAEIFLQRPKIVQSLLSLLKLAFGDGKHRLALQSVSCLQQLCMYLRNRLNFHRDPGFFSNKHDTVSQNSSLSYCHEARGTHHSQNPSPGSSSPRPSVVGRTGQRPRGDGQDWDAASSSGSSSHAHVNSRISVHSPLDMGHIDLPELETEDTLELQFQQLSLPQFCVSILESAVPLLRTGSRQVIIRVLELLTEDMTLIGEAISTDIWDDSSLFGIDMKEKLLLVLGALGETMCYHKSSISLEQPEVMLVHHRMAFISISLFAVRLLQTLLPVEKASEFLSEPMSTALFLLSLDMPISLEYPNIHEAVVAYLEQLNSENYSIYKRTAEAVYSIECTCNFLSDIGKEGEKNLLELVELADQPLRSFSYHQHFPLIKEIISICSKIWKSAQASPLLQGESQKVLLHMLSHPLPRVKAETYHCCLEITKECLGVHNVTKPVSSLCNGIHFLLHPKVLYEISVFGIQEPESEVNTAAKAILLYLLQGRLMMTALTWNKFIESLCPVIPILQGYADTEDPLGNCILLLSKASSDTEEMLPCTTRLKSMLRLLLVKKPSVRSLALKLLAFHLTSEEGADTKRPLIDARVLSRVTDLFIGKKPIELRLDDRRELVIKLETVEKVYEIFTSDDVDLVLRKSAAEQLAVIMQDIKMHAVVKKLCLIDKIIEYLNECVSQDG

B1: GFP-tagged full-length STIL (protein, UniProt Q15468-2 1-1288)
chain: MEPIYPFARPQMNTRFPSSRMVPFHFPPSKCALWNPTPTGDFIYLHLSYYRNPKLVVTEKTIRLAYRHAKQNKKNSSCFLLGSLTADEDEEGVTLTVDRFDPGREVPECLEITPTASLPGDFLIPCKVHTQELCSREMIVHSVDDFSSALKALQCHICSKDSLDCGKLLSLRVHITSRESLDSVEFDLHWAAVTLANNFKCTPVKPIPIIPTALARNLSSNLNISQVQGTYKYGYLTMDETRKLLLLLESDPKVYSLPLVGIWLSGITHIYSPQVWACCLRYIFNSSVQERVFSESGNFIIVLYSMTHKEPEFYECFPCDGKIPDFRFQLLTSKETLHLFKNVEPPDKNPIRCELSAESQNAETEFFSKASKNFSIKRSSQKLSSGKMPIHDHDSGVEDEDFSPRPIPSPHPVSQKISKIQPSVPELSLVLDGNFIESNPLPTPLEMVNNENPPLINHLEHLKPLQPQLYDEKHSPEVEAGEPSLRGIPNQLNQDKPALLRHCKVRQPPAYKKGNPHTRNSIKPSSHNGPSHDIFEKLQTVSAGNVQNEEYPIRPSTLNSRQSSLAPQSQPHDFVFSPHNSGRPMELQIPTPPLPSYCSTNVCRCCQHHSHIQYSPLNSWQGANTVGSIQDVQSEALQKHSLFHPSGCPALYCNAFCSSSSPIALRPQGDMGSCSPHSNIEPSPVARPPSHMDLCNPQPCTVCMHTPKTESDNGMMGLSPDAYRFLTEQDRQLRLLQAQIQRLLEAQSLMPCSPKTTAVEDTVQAGRQMELVSVEAQSSPGLHMRKGVSIAVSTGASLFWNAAGEDQEPDSQMKQDDTKISSEDMNFSVDINNEVTSLPGSASSLKAVDIPSFEESNIAVEEEFNQPLSVSNSSSLVVRKEPDVPVFFPSGQLAESVSMCLQTGPTGGASNNSETSEEPKIEHVMQPLLHQPSDNQKIYQDLLGQVNHLLNSSSKETEQPSTKAVIISHECTRTQNVYHTKKKTHHSRLVDKDCVLNATLKQLRSLGVKIDSPTKVKKNAHNVDHASVLACISPEAVISGLNCMSFANVGMSGLSPNGVDLSMEANAIALKYLNENQLSQLSVTRSNQNNCDPFSLLHINTDRSTVGLSLISPNNMSFATKKYMKRYGLLQSSDNSEDEEEPPDNADSKSEYLLNQNLRSIPEQLGGQKEPSKNDHEIINCSNCESVGTNADTPVLRNITNEVLQTKAKQQLTEKPAFLVKNLKPSPAVNLRTGKAEFTQHPEKENEGDITIFPESLQPSETLKQMNSMNSVGTFLDVKRLRQLPKLF
binding [1]: binds | binding [2]: binds
